Data reported in article PMC3482188.
Results are given in words; binding and its absence hold for the method and conditions named. In cells and extracts the contact can be indirect. A result given as binding can be weak or reduced; the word gives no strength.

Biological target: T1, Serum response factor (SRF) (rat (endogenous in RAOSMC)) (UniProt D3ZHH8)
T1 sequence: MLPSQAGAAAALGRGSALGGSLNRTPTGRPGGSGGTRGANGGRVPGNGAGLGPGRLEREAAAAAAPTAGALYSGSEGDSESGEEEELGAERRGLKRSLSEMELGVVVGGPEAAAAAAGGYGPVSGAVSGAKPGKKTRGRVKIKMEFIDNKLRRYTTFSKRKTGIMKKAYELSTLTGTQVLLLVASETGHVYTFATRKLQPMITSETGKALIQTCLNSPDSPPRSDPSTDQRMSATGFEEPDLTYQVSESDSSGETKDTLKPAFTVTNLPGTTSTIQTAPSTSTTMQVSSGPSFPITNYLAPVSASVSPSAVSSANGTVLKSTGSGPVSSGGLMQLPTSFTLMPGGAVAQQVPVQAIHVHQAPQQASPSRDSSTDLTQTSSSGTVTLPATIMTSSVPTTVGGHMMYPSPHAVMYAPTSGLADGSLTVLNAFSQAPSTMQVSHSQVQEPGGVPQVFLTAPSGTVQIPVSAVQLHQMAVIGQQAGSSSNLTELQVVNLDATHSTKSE
Assay: co-IP; RAOSMC lysate incubated with anti-SRF antibody and Protein A beads overnight at 4°C; beads washed three times, eluted in sample loading buffer with DTT; Western blot with an antibody against Baf60c; IgG control

BAF60c (rat (endogenous in RAOSMC))
binding: binds
